Among the data in patent US20130224300A1, “COMPOSITIONS AND METHODS THEREOF FOR ORAL ADMINISTRATION OF DRUGS” (priority 2011, published 2013) are Cmax and Tmax values, retold here.

The structures appear in SMILES notation.

The data set is described as follows: clinical. As to conditions: human, plasma, po, 35 mg.

`CN1C(=O)CN=C(c2ccccc2)c2cc(Cl)ccc21` [diazepam]: the Cmax was approximately 270 ng/mL and the Tmax is approximately 1.5 h.
